In patent US20230293571A1, “POLYNUCLEOTIDE FOR CANCER TREATMENT, ENCODING 5'-NUCLEOTIDASE MODIFIED PROTEIN” (priority 2020, published 2023):
These are yes or no findings as the source states them, for the method shown. Some results given as binding are weak or reduced against the parent protein; the word gives no strength.

The chains behind the UniProt entries cited, without tags or fusion partners. Residues count along the entry.
UniProt Q08722, residues 19-139: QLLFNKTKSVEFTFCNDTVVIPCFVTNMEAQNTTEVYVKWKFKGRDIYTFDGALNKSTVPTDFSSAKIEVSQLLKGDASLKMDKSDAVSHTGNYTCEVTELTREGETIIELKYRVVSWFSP

Target: recombinant CD47 protein (Homo sapiens, UniProt Q08722)
Assay: SPR, recombinant CD47 amine-coupled to CM5 chip

Binder | binding
SV4 (designed binder) MEEELQIIQPDLSVSVAAGESAILHCTITSLFPVGPIQWFRGAGPARVLIYNQRQGPFPRVTTVSETTKRENMDFSISISNITPADAGTYYCIKFRKGSPDTEFLSGAGTELSVRAKPS | binds
SV4-DSPE (protein) MEEELQIIQPDLSVSVAAGESAILHCTITSLFPVGPIQWFRGAGPARVLIYNQRQGPFPRVTTVSETTKRENMDFSISISNITPADAGTYYCIKFRKGSPDTEFLSGAGTELSVRAKPS | binds
